In PMC12794176:
Results are given in words; binding and its absence hold for the method and conditions named. In cells and extracts the contact can be indirect. Some results given as binding are weak or reduced against the parent protein; the word gives no strength.

Biological target: Lymphocyte activation gene 3 (LAG3) (UniProt P18627)
Test: split reporter; bimolecular fluorescence complementation in cells, read by fluorescence imaging; cells and split fragments not stated in the main text

B1: Lymphocyte activation gene 3 (LAG3) (receptor, UniProt P18627 23-525)
chain: LQPGAEVPVVWAQEGAPAQLPCSPTIPLQDLSLLRRAGVTWQHQPDSGPPAAAPGHPLAPGPHPAAPSSWGPRPRRYTVLSVGPGGLRSGRLPLQPRVQLDERGRQRGDFSLWLRPARRADAGEYRAAVHLRDRALSCRLRLRLGQASMTASPPGSLRASDWVILNCSFSRPDRPASVHWFRNRGQGRVPVRESPHHHLAESFLFLPQVSPMDSGPWGCILTYRDGFNVSIMYNLTVLGLEPPTPLTVYAGAGSRVGLPCRLPAGVGTRSFLTAKWTPPGGGPDLLVTGDNGDFTLRLEDVSQAQAGTYTCHIHLQEQQLNATVTLAIITVTPKSFGSPGSLGKLLCEVTPVSGQERFVWSSLDTPSQRSFSGPWLEAQEAQLLSQPWQCQLYQGERLLGAAVYFTELSSPGAQRSGRAPGALPAGHLLLFLILGVLSLLLLVTGAFGFHLWRRQWRPRRFSALEQGIHPPQAQSKIEELEQEPEPEPEPEPEPEPEPEPEQL
  binding: binds
